The target of one assay is HsCD27 (D249H). The assay is described as follows: flow cytometry on transiently transfected CHO-K1 cells. On the technique in general: In flow cytometry, cells or beads pass a laser one at a time.
The target of another assay is MmCD27 (H258D). The assay is described as above.

Results are given in words; binding and its absence hold for the method and conditions named. For some assays here: Binding can be weak; no strength is given.

B1: hCD27.15-c4 (antibody, human IgG4 S228P, kappa, V domains shown)
VH: EVRLQQSGADLVKPGASVKLSCTASGFIIKATYMHWVRQRPEQGLEWIGRIDPANGETKYDPKFQVKATITADTSSSTAYLQLNSLTSDDTAVYYCARYAWYFDVWGAGTTVTVSS
VL: DIQMTQSPASLSASVGDTVTITCRASENIYSFLAWYHQKQGRSPQLLVYHAKTLAEGVPSRFSGSGSGTQFSLKINSLQAEDFGSYYCQHYYGSPLTFGAGTKLEVKR
Consider B1, for which the binding result in the assay with HsCD27 (D249H) is recorded as “no binding”; with MmCD27 (H258D), “binds”.

These data come from patent US20180086841A1.
